Results are given in words; binding and its absence hold for the method and conditions named.
T1: OsS1Fa1 (site 1 binding factor a1) (rice (Oryza sativa)) (UniProt P42553)
T1 sequence: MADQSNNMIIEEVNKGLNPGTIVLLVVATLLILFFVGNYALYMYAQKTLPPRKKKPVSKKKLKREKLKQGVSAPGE

T2: OsS1Fa2 (site 1 binding factor a2) (rice (Oryza sativa)) (UniProt Q7XLX6)
T2 sequence: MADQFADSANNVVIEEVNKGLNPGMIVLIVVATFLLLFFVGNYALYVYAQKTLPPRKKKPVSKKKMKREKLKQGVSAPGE

T3: OsbZIP58 (bZIP transcription factor 58) (rice (Oryza sativa)) (UniProt Q6ZLB0)
T3 sequence: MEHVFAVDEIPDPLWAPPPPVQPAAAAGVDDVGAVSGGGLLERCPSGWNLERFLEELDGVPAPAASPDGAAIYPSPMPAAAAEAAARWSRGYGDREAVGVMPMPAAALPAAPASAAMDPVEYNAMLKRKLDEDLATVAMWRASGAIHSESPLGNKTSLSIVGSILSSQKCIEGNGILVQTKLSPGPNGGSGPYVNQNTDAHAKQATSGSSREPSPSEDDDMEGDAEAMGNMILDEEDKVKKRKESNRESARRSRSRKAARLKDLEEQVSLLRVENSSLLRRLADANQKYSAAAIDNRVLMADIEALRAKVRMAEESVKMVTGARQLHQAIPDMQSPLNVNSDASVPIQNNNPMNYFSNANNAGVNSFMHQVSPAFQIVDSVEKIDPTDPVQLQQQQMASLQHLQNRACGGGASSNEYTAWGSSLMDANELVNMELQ

T4: OsMIF2 (mini zinc finger 2) (rice (Oryza sativa)) (UniProt B9GBM3)
T4 sequence: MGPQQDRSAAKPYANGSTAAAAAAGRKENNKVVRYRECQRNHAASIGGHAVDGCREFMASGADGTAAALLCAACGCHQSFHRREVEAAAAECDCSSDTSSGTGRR

T5: OsMIF1 (mini zinc finger 1) (rice (Oryza sativa)) (UniProt Q2RB28)
T5 sequence: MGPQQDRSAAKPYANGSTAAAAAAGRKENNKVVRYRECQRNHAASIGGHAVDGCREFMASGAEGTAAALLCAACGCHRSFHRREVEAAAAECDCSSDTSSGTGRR


What was measured:
Experiment in all cases: two-hybrid; ProQuest Two-Hybrid System with Gateway Technology; full-length cDNAs in bait (pDEST32) and prey (pDEST22) vectors; yeast strain MaV203
[1] = target: T1, OsS1Fa1 (site 1 binding factor a1) (rice (Oryza sativa))
[2] = target: T2, OsS1Fa2 (site 1 binding factor a2) (rice (Oryza sativa))
[3] = target: T3, OsbZIP58 (bZIP transcription factor 58) (rice (Oryza sativa))
[4] = target: T4, OsMIF2 (mini zinc finger 2) (rice (Oryza sativa))
[5] = target: T5, OsMIF1 (mini zinc finger 1) (rice (Oryza sativa))
[6] = target: OsICE2 (Inducer of CBF expression 2) (rice (Oryza sativa))
[7] = target: OsGZF1 (GluB-1-binding Zinc Finger 1) (rice (Oryza sativa))
[8] = target: OsMYB24 (R2R3-MYB transcription factor 24) (rice (Oryza sativa))

| binding [1] | binding [2] | binding [3] | binding [4] | binding [5] | binding [6] | binding [7] | binding [8] | Molecule |
| --- | --- | --- | --- | --- | --- | --- | --- | --- |
| no binding | no binding | no binding | – | – | – | – | – | OsGZF1 (GluB-1-binding Zinc Finger 1) (rice (Oryza sativa)) |
| no binding | no binding | no binding | no binding | no binding | – | – | – | OsGATA8 (GATA transcription factor 8) (rice (Oryza sativa)) |
| – | – | – | – | – | no binding | no binding | no binding | OsMIF1 (mini zinc finger 1) (protein, UniProt Q2RB28 1-105) MGPQQDRSAAKPYANGSTAAAAAAGRKENNKVVRYRECQRNHAASIGGHAVDGCREFMASGAEGTAAALLCAACGCHRSFHRREVEAAAAECDCSSDTSSGTGRR |
| – | – | – | – | – | no binding | no binding | no binding | OsMIF2 (mini zinc finger 2) (protein, UniProt B9GBM3 1-105) MGPQQDRSAAKPYANGSTAAAAAAGRKENNKVVRYRECQRNHAASIGGHAVDGCREFMASGADGTAAALLCAACGCHQSFHRREVEAAAAECDCSSDTSSGTGRR |
| – | – | – | – | – | no binding | – | no binding | OsbZIP58 (bZIP transcription factor 58) (protein, UniProt Q6ZLB0 1-436) MEHVFAVDEIPDPLWAPPPPVQPAAAAGVDDVGAVSGGGLLERCPSGWNLERFLEELDGVPAPAASPDGAAIYPSPMPAAAAEAAARWSRGYGDREAVGVMPMPAAALPAAPASAAMDPVEYNAMLKRKLDEDLATVAMWRASGAIHSESPLGNKTSLSIVGSILSSQKCIEGNGILVQTKLSPGPNGGSGPYVNQNTDAHAKQATSGSSREPSPSEDDDMEGDAEAMGNMILDEEDKVKKRKESNRESARRSRSRKAARLKDLEEQVSLLRVENSSLLRRLADANQKYSAAAIDNRVLMADIEALRAKVRMAEESVKMVTGARQLHQAIPDMQSPLNVNSDASVPIQNNNPMNYFSNANNAGVNSFMHQVSPAFQIVDSVEKIDPTDPVQLQQQQMASLQHLQNRACGGGASSNEYTAWGSSLMDANELVNMELQ |
| – | – | – | – | – | no binding | – | no binding | OsS1Fa2 (site 1 binding factor a2) (protein, UniProt Q7XLX6 1-80) MADQFADSANNVVIEEVNKGLNPGMIVLIVVATFLLLFFVGNYALYVYAQKTLPPRKKKPVSKKKMKREKLKQGVSAPGE |
| – | – | – | – | – | no binding | – | no binding | OsS1Fa1 (site 1 binding factor a1) (protein, UniProt P42553 1-76) MADQSNNMIIEEVNKGLNPGTIVLLVVATLLILFFVGNYALYMYAQKTLPPRKKKPVSKKKLKREKLKQGVSAPGE |

From PMC12431501
